Data published in paper PMC10925063, “FUS unveiled in mitochondrial DNA repair and targeted ligase-1 expression rescues repair-defects in FUS-linked motor neuron disease” (Nature Communications, 2024).
Results are given in words; binding and its absence hold for the method and conditions named. Binding seen in cells or lysates may run through a third protein. Some entries that bind do so weakly or less than the wild type.

Sequences of proteins named here, by UniProt entry; tags and fusion partners are left off.
UniProt P35637: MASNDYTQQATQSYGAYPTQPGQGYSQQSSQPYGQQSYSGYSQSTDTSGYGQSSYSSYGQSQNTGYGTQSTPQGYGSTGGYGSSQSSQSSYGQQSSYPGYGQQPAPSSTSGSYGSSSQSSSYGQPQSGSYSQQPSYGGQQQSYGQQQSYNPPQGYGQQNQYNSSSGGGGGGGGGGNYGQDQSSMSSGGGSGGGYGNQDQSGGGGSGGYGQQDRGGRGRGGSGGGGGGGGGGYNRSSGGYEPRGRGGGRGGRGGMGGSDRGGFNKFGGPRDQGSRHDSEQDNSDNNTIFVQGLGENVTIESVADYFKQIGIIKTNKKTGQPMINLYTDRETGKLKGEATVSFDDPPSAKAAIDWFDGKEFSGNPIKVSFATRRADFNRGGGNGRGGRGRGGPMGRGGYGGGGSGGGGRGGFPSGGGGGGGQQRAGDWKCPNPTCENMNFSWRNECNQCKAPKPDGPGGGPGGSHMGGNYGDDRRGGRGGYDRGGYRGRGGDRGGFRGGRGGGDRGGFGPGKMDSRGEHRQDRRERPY

How the values were obtained:
[1] = target: Fused in Sarcoma (FUS), endogenous wild type (human (endogenous in HEK293, fibroblasts, iPSC-derived motor neurons and NPSCs)) (UniProt P35637); test: proximity ligation; Duolink in situ PLA of FUS vs Lig3 in control and patient fibroblasts (Supplementary Fig. 5a); with or without GO
[2] = target: Fused in Sarcoma (FUS), endogenous wild type (human (endogenous in HEK293, fibroblasts, iPSC-derived motor neurons and NPSCs)) (UniProt P35637); test: co-IP; endogenous FUS precipitated with anti-FUS antibody and protein A/G PLUS agarose, immunoblot for Lig3; patient derived NPSC cells; lysis in 0.2% NP-40, 150 mM NaCl, 25 mM Tris-HCl, 0.1% SDS
[3] = target: Fused in Sarcoma (FUS), endogenous wild type (human (endogenous in HEK293, fibroblasts, iPSC-derived motor neurons and NPSCs)) (UniProt P35637); test: co-IP; endogenous FUS precipitated with anti-FUS antibody and protein A/G PLUS agarose, immunoblot for Lig3; HEK293 cells with and without GO; lysis in 0.2% NP-40, 150 mM NaCl, 25 mM Tris-HCl, 0.1% SDS

Measured: binding

B1: mtDNA Ligase IIIα (mtLig3) (enzyme, UniProt P49916 43-1009, looked up)
chain: LLHGHPLFLRRKPVLSFQGSHLRSRATYLVFLPGLHVGLCSGPCEMAEQRFCVDYAKRGTAGCKKCKEKIVKGVCRIGKVVPNPFSESGGDMKEWYHIKCMFEKLERARATTKKIEDLTELEGWEELEDNEKEQITQHIADLSSKAAGTPKKKAVVQAKLTTTGQVTSPVKGASFVTSTNPRKFSGFSAKPNNSGEAPSSPTPKRSLSSSKCDPRHKDCLLREFRKLCAMVADNPSYNTKTQIIQDFLRKGSAGDGFHGDVYLTVKLLLPGVIKTVYNLNDKQIVKLFSRIFNCNPDDMARDLEQGDVSETIRVFFEQSKSFPPAAKSLLTIQEVDEFLLRLSKLTKEDEQQQALQDIASRCTANDLKCIIRLIKHDLKMNSGAKHVLDALDPNAYEAFKASRNLQDVVERVLHNAQEVEKEPGQRRALSVQASLMTPVQPMLAEACKSVEYAMKKCPNGMFSEIKYDGERVQVHKNGDHFSYFSRSLKPVLPHKVAHFKDYIPQAFPGGHSMILDSEVLLIDNKTGKPLPFGTLGVHKKAAFQDANVCLFVFDCIYFNDVSLMDRPLCERRKFLHDNMVEIPNRIMFSEMKRVTKALDLADMITRVIQEGLEGLVLKDVKGTYEPGKRHWLKVKKDYLNEGAMADTADLVVLGAFYGQGSKGGMMSIFLMGCYDPGSQKWCTVTKCAGGHDDATLARLQNELDMVKISKDPSKIPSWLKVNKIYYPDFIVPDPKKAAVWEITGAEFSKSEAHTADGISIRFPRCTRIRDDKDWKSATNLPQLKELYQLSKEKADFTVVAGDEGSSTTGGSSEENKGPSGSAVSRKAPSKPSASTKKAEGKLSNSNSKDGNMQTAKPSAMKVGEKLATKSSPVKVGEKRKAADETLCQTKVLLDIFTGVRLYLPPSTPDFSRLRRYFVAFDGDLVQEFDMTSATHVLGSRDKNPAAQQVSPEWIWACIRKRRLVAPC
notes: DNA ligase IIIα, human, endogenous; also called LigIII; mitochondrial version of Lig3; source: endogenous, in HEK293 cells, fibroblasts, iPSC-derived motor neurons and NPSCs
binds: all assays above
